Assay results: the supplement of paper PMC4604168 (melanoma cell lines)
The other results are listed elsewhere or left out. Repeats are few or missing, and single values can be far off.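 Imaging used 1,536-well plates; nuclei positive for cleaved PARP by antibody were divided by total DNA-stained nuclei to yield the apoptosis fraction. Doses for screening kept most cells viable, and cell lines differ markedly in resting and induced cleaved-PARP levels.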

How the values were obtained:
Test in all cases: cleaved PARP positive nuclei fraction relative to DMSO control; melanoma cells; higher = more apoptosis
Conditions in all cases: library dose: low library concentration; 72 h
501Mel = tested on: 501Mel
A101D = tested on: A101D
A2058 = tested on: A2058
C32 = tested on: C32
CBRC008 = tested on: CBRC008 (line from a melanoma biopsy)
CBRC014 = tested on: CBRC014 (line from a melanoma biopsy)
CBRC016 = tested on: CBRC016 (line from a melanoma biopsy)
CBRC017 = tested on: CBRC017 (line from a melanoma biopsy)

| Structure (SMILES) | cleaved PARP positive nuclei fraction (501Mel) [%] | cleaved PARP positive nuclei fraction (A101D) [%] | cleaved PARP positive nuclei fraction (A2058) [%] | cleaved PARP positive nuclei fraction (C32) [%] | cleaved PARP positive nuclei fraction (CBRC008) [%] | cleaved PARP positive nuclei fraction (CBRC014) [%] | cleaved PARP positive nuclei fraction (CBRC016) [%] | cleaved PARP positive nuclei fraction (CBRC017) [%] |
| --- | --- | --- | --- | --- | --- | --- | --- | --- |
| O=C(O)[C@@H]1[O][Sb](=[O])([O][Sb]2(=[O])[O][C@H]([C@H](O)CO)[C@H](O)[C@H](C(=O)O)[O]2)[O][C@H]([C@H](O)CO)[C@@H]1O (stereo partly specified) [stibogluconate] + O=C(Oc1ccc([N+](=O)[O-])cc1)N1CCC(C(O)(c2ccc3c(c2)OCO3)c2ccc3c(c2)OCO3)CC1 [JZL184] (first compound 2 µM, partner dose 1 µM) | 206 | 30.4 | 91.9 | 91.3 | 102 | 87.3 | 27.1 | 83.7 |
| C[C@@H](N)c1ccc(C(=O)Nc2ccnc3[nH]ccc23)cc1 + O=C(Oc1ccc([N+](=O)[O-])cc1)N1CCC(C(O)(c2ccc3c(c2)OCO3)c2ccc3c(c2)OCO3)CC1 [JZL184] (first compound 0.4 µM, partner dose 1 µM) | 85.9 | 45.4 | 103 | 82.3 | 55.9 | 157 | 71.7 | 174 |
| CO[C@H]1C[C@@H]2CC[C@@H](C)[C@@](O)(O2)C(=O)C(=O)N2CCCC[C@H]2C(=O)O[C@H]([C@H](C)C[C@@H]2CC[C@@H](OCCO)[C@H](OC)C2)CC(=O)[C@H](C)/C=C(\C)[C@@H](O)[C@@H](OC)C(=O)[C@H](C)C[C@H](C)/C=C/C=C/C=C/1C [everolimus] + C/C(O)=C(\C#N)C(=O)Nc1cc(Br)ccc1Br [LFM-A13] (first compound 0.02 µM, partner dose 2 µM) | 102 | 12.9 | 115 | 51.1 | 79.3 | 118 | 55.6 | 286 |
| Cc1ccc(Nc2nccc(N(C)c3ccc4c(C)n(C)nc4c3)n2)cc1S(N)(=O)=O [Pazopanib] + C/C(O)=C(\C#N)C(=O)Nc1cc(Br)ccc1Br [LFM-A13] (first compound 0.4 µM, partner dose 2 µM) | 60.1 | 39.1 | 40.6 | 112 | 22.2 | 49.4 | 38.5 | 80.8 |
| NC1(c2ccc(-c3nc4ccn5c(=O)[nH]nc5c4cc3-c3ccccc3)cc2)CCC1 + O=C(Oc1ccc([N+](=O)[O-])cc1)N1CCC(C(O)(c2ccc3c(c2)OCO3)c2ccc3c(c2)OCO3)CC1 [JZL184] (first compound 0.4 µM, partner dose 1 µM) | 75.1 | 82.3 | 75.8 | 105 | 93.3 | 91.7 | 38.2 | 183 |
| C[C@]12O[C@H](C[C@]1(O)CO)n1c3ccccc3c3c4c(c5c6ccccc6n2c5c31)CNC4=O [Lestaurtinib] + O=C(Nc1ccccc1)c1cc([N+](=O)[O-])ccc1Cl [GW9662] (first compound 0.004 µM, partner dose 2 µM) | 144 | 13.8 | 66.3 | 116 | 63.1 | 99.1 | 59.1 | 122 |
| N.N.[Cl][Pt][Cl] [cisplatin] + N#Cc1c(O)c2c(-c3ccc(-c4ccccc4O)cc3)csc2[nH]c1=O [A769662] (first compound 1.6 µM, partner dose 2 µM) | 110 | 18.8 | 35 | 58.6 | 47.7 | 132 | 69.6 | 81.5 |
| Nc1ccn([C@@H]2O[C@H](CO)[C@@H](O)C2(F)F)c(=O)n1 [gemcitabine] + O=C(Oc1ccc([N+](=O)[O-])cc1)N1CCC(C(O)(c2ccc3c(c2)OCO3)c2ccc3c(c2)OCO3)CC1 [JZL184] (first compound 0.0004 µM, partner dose 1 µM) | 78.7 | 19.7 | 63.3 | 70.4 | 91.4 | 141 | 107 | 120 |
| Cn1c(=O)n(-c2ccc(C(C)(C)C#N)cc2)c2c3cc(-c4cnc5ccccc5c4)ccc3ncc21 + C/C(O)=C(\C#N)C(=O)Nc1cc(Br)ccc1Br [LFM-A13] (first compound 0.004 µM, partner dose 2 µM) | 57.9 | 23.7 | 89.8 | 91.3 | 56.3 | 79.6 | 34.2 | 95.3 |
| CC(C)C[C@H](NC(=O)[C@H](Cc1ccccc1)NC(=O)c1cnccn1)B(O)O [Bortezomib] + O=C(Oc1ccc([N+](=O)[O-])cc1)N1CCC(C(O)(c2ccc3c(c2)OCO3)c2ccc3c(c2)OCO3)CC1 [JZL184] (first compound 0.001 µM, partner dose 1 µM) | 199 | 400 | 97.6 | 167 | 3610 | 636 | 405 | 312 |
| N.N.[Cl][Pt][Cl] [cisplatin] + CCCCCCCCCCCC1=C(O)C(=O)C=C(O)C1=O [Embelin] (first compound 1.6 µM, partner dose 1.2 µM) | 74.3 | 55.9 | 34.1 | 63.6 | 75 | 116 | 82.1 | 235 |
| C=C(c1ccc(C(=O)O)cc1)c1cc2c(cc1C)C(C)(C)CCC2(C)C [Bexarotene] + O=C(Oc1ccc([N+](=O)[O-])cc1)N1CCC(C(O)(c2ccc3c(c2)OCO3)c2ccc3c(c2)OCO3)CC1 [JZL184] (first compound 2 µM, partner dose 1 µM) | 57.4 | 19.6 | 120 | 341 | 419 | 126 | 184 | 127 |
